About 1,400 (4.5%) of roughly 31,000 sequences were called active.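 The calls were made as follows: active = median seed-adjusted z-score above 1 or below -1; inactive = the rest.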 The list shows a part of the results.

This assay is described as follows: Novel Modifiers of Survival Motor Neuron (SMN) Protein: Gene Identification via Genome-wide siRNA Screen.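 Also: luminescence tracks full-length SMN protein made from the SMN2 reporter.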 Particulars: HEK293T SMN2-luciferase reporter, siRNA knockdown, 72 h; actives lie on both sides. An outline of the steps:
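Genome-wide siRNA screen (10418 genes, 3 siRNAs each, 1 pmol per well) by reverse transfection in HEK293T cells stably carrying an SMN2-luciferase reporter; luminescence after 72 hours, normalized to negative-control siRNA, log10-transformed, MAD-scored.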
Background: A reporter such as luciferase makes a cellular process visible.
As for GGAUGAUAGAACAACAGAUTT against FMO2, the median seed-adjusted z-score is inactive: -0.265.

Turning to AGCUCACCAGAGAAAUUUUTT against CHDH, the median seed-adjusted z-score was inactive: 0.0241.

In the case of CUACAACAUCGUUAGCAAATT against CNGB1, the median seed-adjusted z-score is inactive: -0.627.

Consider CUCGCUUCAUAGCAACUUUTT against PSMA8, for which the median seed-adjusted z-score was inactive: 0.407.

Regarding GACCGACUGCAGAACAAUATT against PDE6B, the median seed-adjusted z-score is inactive: -0.336.

On to CGAAUCAUUUGGGAAUUGATT against IDH1, for which the median seed-adjusted z-score is inactive: 0.421.

With GGUUCACGCUAUAUAAUCATT against CNTN1, the median seed-adjusted z-score is inactive: -0.796.

With GUCUCAUGUUUAUACACCATT against HEXB, the median seed-adjusted z-score was inactive: 0.0101.

CACUCGCAGUUAAUAUCAUTT against AZIN1: the median seed-adjusted z-score was active: -1.14.

In the case of CCAGGGACCAAGAGAAAGATT against RCE1, the median seed-adjusted z-score is active: -1.19.

As to CUGUUUGGUUUAUUCGAUUTT against ZW10, the median seed-adjusted z-score was inactive: 0.199.

GCAUACUGCCUAUUGGUCATT against DDHD1: the median seed-adjusted z-score is inactive: 0.

CCUCUAUAAUACAAACGAUTT against CACNA1B: the median seed-adjusted z-score was inactive: 0.0963.

Consider GGCUUUGAGUUGUCAAGCATT against PIK3C2A, for which the median seed-adjusted z-score was inactive: 0.0177.

Take GGAUAGUCUGACUAGUUUATT against BTF3: the median seed-adjusted z-score is inactive: 0.0468.

In the case of GCAUCAACCACGAGUGUAATT against ZNF423, the median seed-adjusted z-score was inactive: 0.0134.

Turning to CCAGUUCAAUAGUCAUGGATT against TAF7L, the median seed-adjusted z-score is inactive: -0.14.

Turning to GGAUGCACUUUGUCCGAAATT against SPATA5, the median seed-adjusted z-score is active: -1.04.

Regarding CAUUCCCUGUUGUAAUCAATT against MDH1, the median seed-adjusted z-score was inactive: -0.154.

As for CUGCUGAUCUGGGCCUGAATT against HINT1, the median seed-adjusted z-score was inactive: 0.873.

As to GACUCAAGUUAAACGAGAUTT against MFSD1, the median seed-adjusted z-score was inactive: -0.0833.

As for GAUCUGCACCGUCCAGUUGTT against TNFRSF25, the median seed-adjusted z-score is inactive: -0.534.

As to GGCCUAUCAGCUUCUAUCATT against GPR172A, the median seed-adjusted z-score was inactive: 0.382.

For CGACCGCAAUAAGUAUGGATT against IHH, the median seed-adjusted z-score was inactive: 0.0642.

With GGUUCGGGAUGACUCUUCATT against VAV1, the median seed-adjusted z-score is inactive: 0.215.

With CUACAAAUCCCUUACCAAUTT against TRDMT1, the median seed-adjusted z-score is inactive: 0.

Take CGGUGCUCCCUGUCAUAAATT against CCR2: the median seed-adjusted z-score is inactive: -0.00107.

With CGUACGCAGAGAUGCCUAATT against ITPA, the median seed-adjusted z-score was inactive: 0.616.

In the case of CCAACGAGCGAGCAGCUUATT against BARX1, the median seed-adjusted z-score is active: 1.63.

For the sequence GGACCAUUUCUAUCAUCUUTT against GNAL, the median seed-adjusted z-score was inactive: -0.178.

For the sequence GGAUGCACCUGAAAACAGATT against AHRR, the median seed-adjusted z-score was inactive: -0.636.

Take GAACUAUGUGGUGCGCUUATT against GPD1L: the median seed-adjusted z-score is inactive: 0.11.

Consider CAGUGAUCCUGAACGAGGATT against DLG2, for which the median seed-adjusted z-score is inactive: 0.133.

For GGAGGACCAUUAUUAUGAATT against TKT, the median seed-adjusted z-score is inactive: 0.0314.

Consider CCAGGGUAAAGUCAGUUAATT against SMAP2, for which the median seed-adjusted z-score is inactive: -0.0114.

Turning to GCAGCUACCUCAUGACUAUTT against EIF4EBP2, the median seed-adjusted z-score was inactive: 0.517.

With GAAACCCGAUGGAUCUAGATT against AASDHPPT, the median seed-adjusted z-score is inactive: 0.64.

As for GGGUCAAGUCUGAACUGCUTT against KATNAL1, the median seed-adjusted z-score is inactive: -0.0327.

Consider UGACAUUACUGAUGACAUATT against LALBA, for which the median seed-adjusted z-score was inactive: -0.148.

For GGAUUGUAAACAAGGUCAATT against TNFRSF9, the median seed-adjusted z-score was inactive: 0.859.

As to CACCUUCAUUUUACUCGAATT against TAF5, the median seed-adjusted z-score was inactive: -0.192.

As to GGAAAAAGGGCAUCGAGAATT against MDH2, the median seed-adjusted z-score is inactive: 0.185.

As to CAUAUAUGAUUGCAUCAAATT against ACTL6A, the median seed-adjusted z-score is active: 1.11.

On to GACCAUACCCAGUACCGAUTT against MYH15, for which the median seed-adjusted z-score is inactive: -0.939.

Take CGCAGUGCUUAAUCGAAAATT against CARD11: the median seed-adjusted z-score is inactive: 0.22.

For the sequence GGCUGGAUCUAUGACAACATT against SLC22A6, the median seed-adjusted z-score is inactive: 0.135.

As to GCAGAUAGGCUCUUACUUUTT against ITGA11, the median seed-adjusted z-score was inactive: 0.496.

Take UGCUCAUCACCAACUCUAATT against GALK1: the median seed-adjusted z-score was inactive: 0.315.

Take GUGGGUAACUGGAACAAAATT against MFGE8: the median seed-adjusted z-score was inactive: 0.0367.

Take CCACAGCAUGAACCGCUUATT against CPA5: the median seed-adjusted z-score is inactive: 0.141.

With AGAUGAUCGACGAAGCUGATT against CETN1, the median seed-adjusted z-score was inactive: 0.236.

Regarding CUCCUAUAAGAAAUCAAUATT against FLVCR1, the median seed-adjusted z-score is inactive: 0.197.

Take GGACGAUAGGGAUAGGGAUTT against EIF3A: the median seed-adjusted z-score is inactive: -0.689.

On to CAGUCCCUAUUUCAAAAUATT against PDE6G, for which the median seed-adjusted z-score is inactive: 0.0109.

On to GAAUCUAAGCAUAUACUCUTT against MYO3B, for which the median seed-adjusted z-score was inactive: 0.51.

CCGUAACCGCCGCAAGAUATT against RAVER1: the median seed-adjusted z-score is inactive: -0.0873.

As for GAAGGAAUAUUGUAAUACATT against LACE1, the median seed-adjusted z-score was inactive: 0.166.

For GACAAAAAGUCCAACCCUATT against CYB5R3, the median seed-adjusted z-score was inactive: -0.901.

Consider GGAUGUACUGCAGUACAGATT against EPHA3, for which the median seed-adjusted z-score is inactive: 0.

In the case of UCUUCGUGGUGAUCACUGUTT against SLC46A1, the median seed-adjusted z-score is inactive: -0.00763.

GCAAGUACCUGAGAACGGATT against APOB: the median seed-adjusted z-score was inactive: -0.0862.

In the case of CACCCAAGCUGAUCAGAGATT against FAR2, the median seed-adjusted z-score was inactive: 0.0328.

For the sequence CGAUUUGACGAUUACAACATT against FSTL4, the median seed-adjusted z-score was inactive: 0.429.

With GAUUCCCUGCAUCAACUAATT against SQLE, the median seed-adjusted z-score was active: -1.14.

GUUCUUCACUUUUGAGGAUTT against DMRT1: the median seed-adjusted z-score was inactive: 0.

Turning to ACAAAACUCUCCAGAUUAATT against STYXL1, the median seed-adjusted z-score was inactive: -0.311.

Consider GGCAUACUUGCAACUAAUATT against MX2, for which the median seed-adjusted z-score was inactive: -0.0346.

Turning to CACUCACCAUGAAGCGAAATT against CDKN2B, the median seed-adjusted z-score is inactive: 0.0154.

GCAGACCACCUGAAUAUGATT against TRO: the median seed-adjusted z-score is active: 2.04.

Source of the values: PubChem BioAssay AID1347426 (Functional Genomics Laboratory (NCATS/FGL), 2020).
